# Source: patent US20220304349A1, “Steviol Glycoside Compositions for Oral Ingestion or Use” (CARGILL, Incorporated, priority 2016, published 2022)
# Test system: UGT 76G1 and EUGT11
# Experiment: Bioconversion of steviol glycosides with crude UGT enzyme preparations expressed in E. coli, LC-UV analysis
# Assay type: biochemical
# Settings: 2 mM substrate fed, overnight at 30° C.
# Protocol: The wildtype genes for UGTs EUGT11 and 76G1 are cloned individually into E. coli XjB-autolysis BL21(DE3) cells using the pET30 vector system from Novagen (EMD4 Biosciences, Madison, Wis.). All vectors use an IPTG-inducible promoter. Plasmid DNA is transformed into chemically competent cells as described by the vendor.
# For in vitro assays, transformants displaying the desired antibiotic resistance are grown overnight at 30° C. in 2 mL cultures using NZCYM-media and antibiotic. The following day, the cultures are induced to a final concentration of 0.3 mM IPTG and 3 mM arabinose, and grown for 24 h at 20° C. The cells are then harvested by centrifugation at 4000 rpm for […] and resuspended in 200 μL GT-buffer (RBC Bioscience) and 3 tablets/100 ml of Complete mini, protease inhibitor (Roche), transferred to Eppendorf tubes, vortexed and frozen at −80° C. for 1.5 hour. Cells are thawed on ice, and left at room temperature for 3 minutes. When approximately half-way thawed, 15 μl of 0.14 mg/ml H2O DNase solution+30 μl 0.05M MgCl2 is added to each tube and the samples are incubated for approximately 5 minutes at room temperature. The cells are centrifuged at maximum speed for 5 minutes. One-hundred μL of supernatant (lysate) is transferred to fresh microfuge tubes, and 100 μL of glycerol is added.
# Bioconversions are performed in a sealed vial with 0.05 M phosphate buffer, pH=7.0, 3 mM of MgCl2, 4 mM UDP-glucose (disodium salt, Calbiochem, 10× stock solution is prepared in 0.05 M phosphate buffer, pH=7.0), 2 mM substrate (10× rebaudioside A stock solution is prepared in 0.05 M phosphate buffer, pH=7.0, or 10× rebaudioside D stock solution is prepared in 60% DMSO, or other glycosides), and 5-10 μL of the crude enzyme preparations described above. Various starting steviol glycosides are incubated with UGT 76G1 and EUGT11 overnight at 30° C. Following centrifugation at 4000 rpm for 5 minutes, 20 μL samples are diluted with 180 μL water. The samples are then subjected to LC-UV analysis.
# [1] = Mix of 2 crude UGT preparations
SMILES,Products [1],Products (UGT clone EUGT11)
"C=C1C[C@@]23CC[C@H]4[C@@](C)(CCC[C@@]4(C)C(=O)O[C@@H]4O[C@H](CO)[C@@H](O)[C@H](O)[C@H]4O)[C@@H]2CC[C@]1(O[C@@H]1O[C@H](CO)[C@@H](O)[C@H](O[C@@H]2O[C@H](CO)[C@@H](O)[C@H](O)[C@H]2O)[C@H]1O[C@@H]1O[C@H](CO)[C@@H](O)[C@H](O)[C@H]1O)C3 [Reb A, rebaudioside A]",Various steviol glycoside,"Rebaudioside D, various"
"C=C1C[C@@]23CC[C@H]4[C@@](C)(CCC[C@@]4(C)C(=O)O[C@@H]4O[C@H](CO)[C@@H](O)[C@H](O)[C@H]4O[C@@H]4O[C@H](CO)[C@@H](O)[C@H](O)[C@H]4O)[C@@H]2CC[C@]1(O[C@@H]1O[C@H](CO)[C@@H](O)[C@H](O[C@@H]2O[C@H](CO)[C@@H](O)[C@H](O)[C@H]2O)[C@H]1O[C@@H]1O[C@H](CO)[C@@H](O)[C@H](O)[C@H]1O)C3 [Reb D, rebaudioside D]",Various steviol glycoside,
